Source: publication PMC3846746
No constants are given. Whether binding was seen depends on the method and setting. In cells and extracts the contact can be indirect. Some entries that bind do so weakly or less than the wild type.

Target: C-Raf (rat (endogenous in A7r5)) (UniProt P11345)
Assay: co-IP; endogenous proteins of A7r5 lysates in IP lysis buffer (50 mmol/L NaCl, 10% glycerol, 1% Nonidet-P40, 10 mmol/L sodium phosphate, pH 8.0); anti-IQGAP1, anti-KSR1, anti-B-Raf or anti-C-Raf cross-linked to Protein G dynabeads, or anti-ERK1/2 cross-linked to protein A agarose, 4°C over night; western blot and densitometry; for the ERK1/2, IQGAP1 and KSR1 IPs cells were unstimulated or stimulated 5 min with DPBA or FCS

B1: caveolin-1 (protein, UniProt P41350 1-178)
chain: MSGGKYVDSEGHLYTVPIREQGNIYKPNNKAMADEVNEKQVYDAHTKEIDLVNRDPKHLNDDVVKIDFEDVIAEPEGTHSFDGIWKASFTTFTVTKYWFYRLLSTIFGIPMALIWGIYFAILSFLHIWAVVPCIKSFLIEIQCISRVYSIYVHTFCDPLFEAIGKIFSNIRISTQEEI
In the case of B1, the binding is reported as “binds weakly”.
